Library screen at single concentrations

Measurements from “University of Dundee, Small-Polar-MMV Screening Library” (2021), ChEMBL document CHEMBL3988442.

Mtb glucose medium: 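Phenotypic screen: M. tuberculosis growth, glucose 7H9 medium, 3 days; the read-out is not stated. Compounds at 50 µM. Higher reads as more growth inhibition (inferred: compounds with an IC50 in retests scored well above the rest). Of about 69,000 compounds tested this way, about 760 (1.1%) reached 50% or more in at least one test.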
Mtb cholesterol medium: 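Phenotypic screen: M. tuberculosis growth, cholesterol and DPPC medium, 4 days; the read-out is not stated. Tested at 50 µM. The record gives no direction; compounds that gave an IC50 in retests scored well above the rest, so higher reads as more growth inhibition. About 69,000 compounds were tested under these conditions; 0.54% (about 370) showed 50% or more at least once.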

Values are the deposited “Percent Effect”, in %. The record does not define 0% and 100%; most values in the screen are far below 50% and negative numbers occur (in some assays of this library far below -100). This is an unselected part of the compounds tested. Two or more numbers in one place are separate tests of the same structure; such repeats can differ widely.

With CN(C)C(=O)N1Cc2nnn(CC3CC3)c2C(COCC2CC2)C1 (configuration not stated) the screen gave Mtb glucose medium: 8.921%; Mtb cholesterol medium: 1.084%.
With CC(C)(C)CC(=O)NCC(=O)Nc1ccn(Cc2ccccc2)n1 the screen gave Mtb glucose medium: -20.39%; Mtb cholesterol medium: -14.47%.
With Cc1n[nH]cc1CNC(=O)CCCc1cccs1 the screen gave Mtb glucose medium: -0.1976%; Mtb cholesterol medium: 6.698%.
With COCCC1(C(=O)O)CCN(c2cc(C)c3ccccc3n2)CC1 the screen gave Mtb glucose medium: -3.596% & -29.64%; Mtb cholesterol medium: -12.71%.
With CN(C)[C@@H]1CCN(C(=O)c2ccccn2)[C@H]1Cc1ccncc1 the screen gave Mtb glucose medium: 3.309%; Mtb cholesterol medium: -8.177% & 21.8%.
With Cn1c(=O)n(C)c2nc(Cl)c(CC(=O)c3ccc(F)cc3)n2c1=O the screen gave Mtb glucose medium: -6.88%; Mtb cholesterol medium: -28.23%.
With Cl.Cl.c1ccc(NCc2cn3c(n2)CNCC3)nc1 the screen gave Mtb glucose medium: 3.036% & -5.286%; Mtb cholesterol medium: 10.71%.
With [H][C@@]12CCN(c3ccccn3)C[C@]1([H])[C@@H](CNC(=O)c1ccco1)OC2 the screen gave Mtb glucose medium: 12.29%; Mtb cholesterol medium: -1.042%.
With Cn1cc(C2COC3(CCN(C(=O)c4cccn4C)CC3)C2)cn1 (configuration not stated) the screen gave Mtb glucose medium: 0.1299%; Mtb cholesterol medium: -5.896% & -1.776%.
With COc1cccc(NC(=O)C2CC(=O)n3cnnc3S2)c1 (configuration not stated) the screen gave Mtb glucose medium: 4.524% & 15.43%; Mtb cholesterol medium: 7.095%.
With COc1ccc2c(c1)OCC(Cc1cc(C(=O)N3CCCC3)ccn1)C2 (configuration not stated) the screen gave Mtb glucose medium: 19.51%; Mtb cholesterol medium: -4.067%.
With COc1cccc(CN2CC(O)CN(S(C)(=O)=O)CC2=O)c1OC (configuration not stated) the screen gave Mtb glucose medium: 2.528%; Mtb cholesterol medium: -18.84%.
With O=C(O)C(F)(F)F.c1csc(CN2CCCn3cnc(COCC4CC4)c3C2)c1 the screen gave Mtb glucose medium: 5.718%; Mtb cholesterol medium: -26.66%.
With CCc1nc(Cn2nc(C3CCNCC3)n(-c3ccccc3)c2=O)cs1 the screen gave Mtb glucose medium: 1.054%; Mtb cholesterol medium: -24.02%.
With CCC(O)CN1CCN(C(=O)Cc2c(C)nc(C)[nH]c2=O)CC1 (configuration not stated) the screen gave Mtb glucose medium: -7.932% & -19.75%; Mtb cholesterol medium: -12.68%.
With CCCc1nc(C)cc(N2CCC3(CCC(=O)N(CC(N)=O)C3)CC2)n1 the screen gave Mtb glucose medium: -16.2% & 2.432%; Mtb cholesterol medium: 10.66%.
With COC(=O)c1cc(OCC2CCC2)cc(C(=O)N[C@H]2CCCC[C@@H]2O)c1 the screen gave Mtb glucose medium: 28.32%; Mtb cholesterol medium: 7.859%.
With Cn1nc(CNC(=O)C2CCCC2)cc1C1CC1 the screen gave Mtb glucose medium: -10.87%; Mtb cholesterol medium: -6.725%.
With Cc1ccc(F)c2c1N(C(=O)c1ccc(S(C)(=O)=O)cc1)CCC2 the screen gave Mtb glucose medium: 9.625% & -9.206%; Mtb cholesterol medium: -3.942%.
With [H][C@@]12COC[C@]1(COc1ccc(C#N)cn1)CN(Cc1c(C)noc1C)C2 the screen gave Mtb glucose medium: 4.573%; Mtb cholesterol medium: -2.056%.
With COC(=O)c1cccc(C(=O)N(C)Cc2cccc(F)c2)c1 the screen gave Mtb glucose medium: -13.58%; Mtb cholesterol medium: -10.12%.
With CC(NC(=O)CN(C)S(C)(=O)=O)c1nnc2n1CCCCC2 (configuration not stated) the screen gave Mtb glucose medium: -47.19%; Mtb cholesterol medium: -55.45%.

The last 2 entries again:

COC(=O)c1cccc(C(=O)N(C)Cc2cccc(F)c2)c1 read Mtb glucose medium: -13.58%; Mtb cholesterol medium: -10.12%.
CC(NC(=O)CN(C)S(C)(=O)=O)c1nnc2n1CCCCC2 (configuration not stated) read Mtb glucose medium: -47.19%; Mtb cholesterol medium: -55.45%.